Consider 1 molecule from article PMC9353266.

Chains of the proteins cited; added tags and fusions are not shown.
UniProt P09528: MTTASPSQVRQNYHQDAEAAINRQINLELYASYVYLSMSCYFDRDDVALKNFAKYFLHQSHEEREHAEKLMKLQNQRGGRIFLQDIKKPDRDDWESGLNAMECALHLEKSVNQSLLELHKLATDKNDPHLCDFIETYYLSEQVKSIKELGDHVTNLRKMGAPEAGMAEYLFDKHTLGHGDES

For the assay, the target named is FLAG-tagged FTH1 (ferritin heavy chain) (mouse (cDNA from HEI-OC1 cells)) (UniProt P09528). Briefly: co-IP; WT and NPC1-/- HEI-OC1 cells co-transfected with FLAG-Fth1 and HA-NCOA4 for 48 h; IP lysis buffer; ANTI-FLAG M2 Affinity Gel, 4°C overnight; five washes; immunoblot with anti-FLAG and anti-HA; empty FLAG vector as control.

No constants are given. Whether binding was seen depends on the method and setting. Binding seen in cells or lysates may run through a third protein. Some entries that bind do so weakly or less than the wild type. Tags and fused reporters may be left off the sequences shown.

B1: HA-tagged NCOA4 (nuclear receptor coactivator 4) (protein, UniProt Q5U4H9 1-625)
chain: MNTSLEQSGCYSNRETLLRCSDARRELELAIGGVLRAEQQIKDNLREVKAQIHSCISRHLECLRSREVWLNEQVDLIYQLKEETLQQQAQQLYWLMGQFNCLIHQLEYTQNKDLANQVSVCLERLGSLALKPEDSTVLLFEADTSALRQTITTFGSLKTIQIPEHLMAHASSSSIGPFLEKRGYIQVPEQKSASSGTAVSLSEWLLVSKPAIGLQAPYVPSTNPQDWLIPKQTSENSQTSARACSFFSDAWGNLKGLENWLLNSHQQEIAGKPSSSKCNSHCSTSSFSPEAEKAEDVELLDQDELDLSDWLVTPQEPCELEKPVDGSWETSEKFKLLFQVFREPYNVSDWLVKPDSCTNCQGNQPRGVEIENLGNLKCLNDHLEAKKSVSVPGATISDGWLAQNHQDTWKVEEVCKANEPCTSFAECVCDDNCEKEAMYKWLLKKGGKDKNGMPMEPKSEPEKHRESLTLWLCPSRNELTEQAKAPKAMAPARIADSFHVIKNSSLSEWLMGPTCKGGPKDVPNTEERAGKEMLQSSMATSWCPFNTADWVLPGKKVGSLSQFPSGEDKWLLRKKAQEAFLNSPLQEERNFRPDCYGLPAVCDLFACMQLKVDKEKWLYRTPLQM
On to B1, for which the binding entry is recorded as “binds”.
